# Test results taken from patent US20100022401A1, “Avidin-like proteins from symbiotic bacteria” (LICENTIA OY, priority 2004, published 2010).
# B1: Bradavidin: full length wild-type (138 amino acid residues, SEQ ID NO:1) avidin-like biotin-binding protein from Bradyrhizobium japonicum (protein, listed as Bradyrhizobium japonicum)
# chain: QSVNWTWTNQYGSTLAITSFNSNTGAITGTYTNNAANSCDEGKPQGVTGWLAYGNTGTAISFSVNFLGCGSTTVWTGQLNNATGFQGLWYLSLAEAVAWNGISAGADTFTFSSGDKALLTKSGVDLKAGSEKLSNTKK
# B2: Avidin: chicken avidin (SEQ ID NO:6), glycosylated biotin-binding protein (protein)
# chain: NSARSTPGCPPAAEMVHATSPLLLLLLLSLALVAPGLSARKCSLTGKWTNDLGSNMTIGAVNSRGEFTGTYITAVTATSNEIKESPLHGTQNTINKRTQPTFGFTVNWKFSESTTVFTGQCFIDRNGKEVLKTMWLLRS
# Test system: human serum antibodies elicited toward avidin and streptavidin
# Assay: ELISA immunological cross-reactivity with sera of cancer patients exposed to avidin and streptavidin
# Format: binding
# Conditions: diluted 1:100
row,Molecule,"Recognition by patient sera (ELISA, absorbance at 405 nm)"
1,B1,None of the patient sera showed a significant response
2,B2,recognised
